# Some of the results follow. Further columns of the screen follow, without active or inactive calls. The list favours compounds with an active or inconclusive main result. The note in brackets gives the kind of curve behind each potency; many fits are weak.
# Assay: Cell signaling CRE-BLA (Fsk stim)
# Details: CHO CRE-bla reporter (cAMP response element driving beta-lactamase), forskolin EC10, beta-lactamase ratio; measured here: 460 nm blue channel
# Summary of the method: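 Cells were plated overnight at 37 °C, exposed to compound titrations plus EC10 NKH 477 for 3 h, then given CCF4 dye for 2 h at room temperature. Blue/green (460/530 nm) ratio was converted to %Activity and AC50 values calculated.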
row,SMILES,AC50
1,CCc1nc(SCC(=O)Nc2nccs2)c2oc3ccccc3c2n1,"1.26 µM [rising, full curve]"
2,Cc1ccc(NC(=O)NC(=O)CN2C(=O)NC3(CCc4ccccc43)C2=O)c(C)c1 (stereo not drawn),"5.01 µM [falling, single point]"
3,CCOc1cc(NC(=O)c2ccco2)c(OCC)cc1NC(=O)c1cc(OC)c(OC)c(OC)c1,"1.26 µM [rising, partial curve]"
4,CCSc1nnc(NC(=O)c2ccco2)s1,"0.00398 µM [falling, full curve, poor fit]"
5,O=C(NCc1ccccc1)N1CCN(c2ccccc2F)CC1,"10 µM [falling, partial curve]"
6,CCOC(=O)/C=c1\s/c(=C\c2ccccc2OC)c(=O)n1CC(=O)N1CCOCC1,"2 µM [rising, full curve]"
7,CS(=O)(=O)Nc1cccc(-c2nc(NC3CC3)c3ccccc3n2)c1,"5.01 µM [rising, partial curve]"
8,CCn1cc(C(=O)NCC2CCCO2)c(=O)c2cc(S(=O)(=O)N3CCCCCC3)ccc21 (stereo not drawn),"5.01 µM [falling, single point]"
9,CCc1ccc(NC(=O)c2cc(C(C)C)on2)cc1,"0.00316 µM [falling, full curve, poor fit]"
10,COc1ccc(-c2nc(NC(=O)CSc3nnc(C)s3)ns2)cc1,"3.98 µM [falling, partial curve]"
11,CCCC[P+](CCCC)(CCCC)Cc1ccc(NC(=O)[C@@H](Cc2ccc3ccccc3c2)NC(=NC2CCCCC2)NC2CCCCC2)cc1,"25.1 µM [falling, partial curve, poor fit]"
12,CC(=O)CCS(=O)(=O)c1ccc(C)c(C)c1,"12.6 µM [falling, single point]"
13,CN(C)c1ccc2c(c1)OC(N)=C(C#N)C2c1cccc(F)c1 (stereo not drawn),"1.26 µM [rising, partial curve]"
14,O=C1C2C3C=CC(C3)C2C(=O)N1Cc1ccccc1 (stereo not drawn),"0.501 µM [rising, full curve]"
15,Cc1nn(C)cc1CNC(=O)C1C2CCC(O2)C1C(=O)O (stereo not drawn),"12.6 µM [rising, single point]"
16,CCc1ccc2[nH]c(=O)c(CN(CCCN3CCOCC3)C(=O)Nc3ccccc3)cc2c1,"10 µM [rising, partial curve]"
17,CN1CCN(CCCN2c3ccccc3Sc3ccc(S(=O)(=O)N(C)C)cc32)CC1,"12.6 µM [rising, partial curve]"
18,Cn1c(=O)c2c(nc(CN3CCN(c4ccccc4)CC3)n2Cc2c(F)cccc2Cl)n(C)c1=O,"0.316 µM [rising, full curve, poor fit]"
19,CCC(=O)n1nc(NCc2ccc(OC)c(OC)c2)nc1NCc1ccc(OC)c(OC)c1,"3.98 µM [rising, partial curve]"
20,CCn1c(=O)cc(C(=O)OC)sc1=Nc1ccc(F)c(F)c1,"12.6 µM [falling, single point]"
21,N#CC(C(=O)NCCc1ccccc1)c1nc2ccccc2nc1N1CCOCC1 (stereo not drawn),"15.8 µM [rising, single point]"
22,Cc1cnc(C(=O)Nc2ccccc2C(=O)N2CCOCC2)cn1,"0.00316 µM [falling, full curve, poor fit]"
23,CCOC(=O)c1c(NC(=O)c2nn(CC)cc2Br)sc(C)c1C,"3.16 µM [rising, full curve]"

row,SMILES,AC50
1,Cc1cccc(CN2CCN(CC(=O)NCCCN3CCCC3=O)C2=O)c1,"0.00398 µM [falling, full curve, poor fit]"
2,COc1ccc(N=CC2=C(O)CCCC2=O)cc1,"10 µM [falling, single point]"
3,COc1ccccc1N1CCN(C(=O)Cc2cccs2)CC1,"0.251 µM [rising, partial curve]"
4,CCOc1ccccc1C(=O)Nc1nncs1,"10 µM [rising, partial curve]"
5,COc1ccc2c(c1)c(=O)c(Br)c(C)n2Cc1ccccc1,"5.01 µM [rising, partial curve]"
6,Cc1ccccc1OCC(=O)Nc1ccccc1N1CCOCC1,"15.8 µM [rising, partial curve]"
7,O=C(CSc1nnc(NC(=O)C2CCC2)s1)Nc1ccc(N2CCOCC2)cc1,"25.1 µM [falling, single point]"
8,CCOC(=O)c1c(C)c(C(=O)NCc2ccccn2)c(C)n1CC,"20 µM [rising, single point]"
9,Cc1nn2c(N3CCCC3)cc(C(C)C)nc2c1-c1ccccc1,"0.01 µM [rising, full curve, poor fit]"
10,CCOc1cc(-c2c(C#N)c(N)nc3c2CCCC3C)ccc1O (stereo not drawn),"5.01 µM [rising, partial curve]"
11,O=C(c1cc2ccccc2c(=O)o1)N1CCc2ccccc2C1,"10 µM [falling, partial curve, poor fit]"
12,COc1cc2c(cc1NC(=O)CSc1nnc(Cc3cccs3)n1C)oc1ccccc12,"20 µM [rising, partial curve, poor fit]"
13,CCOc1ccccc1-n1c(COc2ccccc2)nnc1SCC(N)=O,"0.126 µM [falling, single point]"
14,CCOC(=O)c1c(NC(=O)CSc2nnnn2C)sc(CC)c1C,"15.8 µM [rising, single point]"
15,CC(=O)Nc1ccc(C(=O)CSc2nnc3scc(-c4ccccc4)n23)cc1,"7.94 µM [rising, partial curve]"
16,COC(=O)c1cc2c(=O)n3ccccc3nc2n(C(C)C)c1=N,"6.31 µM [rising, partial curve]"
17,O=c1[nH]c2cc3c(cc2cc1CN(Cc1nnnn1CC1CCCO1)C1CCCC1)OCO3 (stereo not drawn),"12.6 µM [rising, single point]"
18,O=c1c(-c2cc(F)cc(F)c2)nc2cnc(N3CCOCC3)nc2n1CCc1ccccc1,"2 µM [rising, partial curve]"
19,COCCn1c(=O)c(C)nc2cnc(Nc3cccc(OC)c3)nc21,"12.6 µM [rising, partial curve]"
20,Cc1cc(N2CCOCC2)nc(NCc2ccccc2)n1,"0.794 µM [falling, full curve]"
21,CC1Cc2nc(SCC(=O)Nc3nccs3)n(Cc3ccccc3)c(=O)c2S1 (stereo not drawn),"12.6 µM [rising, partial curve]"
22,CCCCS(=O)CC(O)COc1ccc(C(C)(C)C)cc1 (stereo not drawn),"0.00316 µM [falling, full curve]"
23,Nc1ccc(CN2CCN(c3ccc4ccccc4n3)CC2)cc1,"10 µM [falling, partial curve]"

row,SMILES,AC50
1,CCOC(=O)Cn1cnc2c(C#N)c3n(c2c1=O)CCCCC3,"15.8 µM [rising, single point]"
2,COc1ccccc1CN1C(=O)CCC1(C)C(=O)NCc1cccnc1 (stereo not drawn),"0.251 µM [rising, full curve]"
3,Cc1cc(-n2nnc3ccccc32)nc2ccccc12,"5.01 µM [rising, full curve, poor fit]"
4,COc1cc(C2C(C#N)=C(N)Oc3cc(N(C)C)ccc32)cc2c1OCO2 (stereo not drawn),"1.26 µM [rising, partial curve]"
5,O=C(c1cc2nc(-c3ccco3)cc(C(F)(F)F)n2n1)N1CCN(c2ccccn2)CC1,"12.6 µM [rising, single point]"
6,COC(=O)C(C)Sc1nc2c(c(=O)[nH]c(=O)n2C)n1CCC(C)C (stereo not drawn),"10 µM [rising, single point]"
7,COc1ccc(Cl)cc1NC(=O)CN(C)C(C)C(=O)NCC1CCCCC1 (stereo not drawn),"3.16 µM [falling, single point]"
8,COc1cc(C)c2occ(/C(C)=N\O)c2c1,"12.6 µM [rising, partial curve]"
9,CCOC(=O)c1c(C)n(OCc2ccccc2)c2ccc3nonc3c12,"10 µM [rising, partial curve]"
10,O=C(CSc1nc2ccccc2c(=O)[nH]1)Nc1ccc(S(=O)(=O)N2CCCC2)cc1,"25.1 µM [rising, single point]"
11,CN(C)c1nc(-c2ccc3c(c2)OCO3)nc2ccccc12,"10 µM [rising, partial curve]"
12,COc1ccc(CNc2nc(-c3cccnc3)nc3ccccc23)c(OC)c1,"3.98 µM [rising, partial curve, poor fit]"
13,Cc1ccc(C)c(S(=O)(=O)Nc2ccc(S(=O)(=O)Nc3onc(C)c3C)cc2)c1,"12.6 µM [falling, single point]"
14,CCC(C)[C@@H](NC(=O)OC(C)(C)C)c1nnc(S(=O)(=O)Cc2cccc(C)c2)o1 (stereo partly drawn),"5.01 µM [falling, full curve]"
15,COC(=O)c1cc2c(s1)-c1ccccc1OC2,"25.1 µM [rising, single point]"
16,COc1ccccc1NC(=O)Cn1cnc2c(cnn2-c2ccc(C)c(C)c2)c1=O,"15.8 µM [rising, partial curve]"
17,COc1ccc(CCNC(=O)CN2CCCc3ccccc32)cc1OC,"3.16 µM [falling, partial curve]"
18,CCc1nnc(NC(=O)CSc2nnc(Cc3cccn3C)n2CCOC)s1,"10 µM [rising, partial curve]"
19,CON(C)c1nc(OCCNC(=O)COc2ccc(Cl)cc2C)nc(N(C)C)n1,"5.01 µM [rising, partial curve]"
20,COc1ccc(-c2ccc(=O)n(Cc3cc(=O)n4ccccc4n3)n2)cc1,"7.94 µM [rising, partial curve]"
21,CCc1cc2c3c(c(=O)oc2cc1O)CCCC3,"12.6 µM [rising, single point]"
22,Cn1ncc(C#N)c1/N=C/N1CCCCC1,"0.00316 µM [falling, full curve, poor fit]"

# Copied from above, three compounds:
row,SMILES,AC50
17,COc1ccc(CCNC(=O)CN2CCCc3ccccc32)cc1OC,"3.16 µM [falling, partial curve]"
18,CCc1nnc(NC(=O)CSc2nnc(Cc3cccn3C)n2CCOC)s1,"10 µM [rising, partial curve]"
19,CON(C)c1nc(OCCNC(=O)COc2ccc(Cl)cc2C)nc(N(C)C)n1,"5.01 µM [rising, partial curve]"

# Looked up above.
# AC50, `COc1ccc(-c2ccc(=O)n(Cc3cc(=O)n4ccccc4n3)n2)cc1` is entered as 7.94 µM [rising, partial curve]
# AC50, `CCOC(=O)Cn1cnc2c(C#N)c3n(c2c1=O)CCCCC3` is entered as 15.8 µM [rising, single point]

# — PubChem BioAssay AID662 (National Center for Advancing Translational Sciences (NCATS), 2007)
